Reference: paper PMC4674085 (PLoS ONE, 2015)

Experiment: general procedure: Fmoc solid-phase peptide synthesis; rink-amide resin (0.88 μmol/mg) from Bachem; HCTU, DIEA
Conditions: whole synthesis, MALDI FT-ICR MS and reversed phase HPLC, scale of the general procedure 40–50 mg resin
With “PEPTIDE1{S.V.S.V.S.V.S.V.S.[am]}$$$$V2.0” the “crude HPLC purity” value was roughly 50%. With PEPTIDE1{S.V.S.V.S.V.S.[am]}$$$$V2.0 the “crude HPLC purity” value was roughly 50%. In the case of PEPTIDE1{S.V.S.V.S.V.[am]}$$$$V2.0, the “final HPLC purity” value is reported as greater than 95%. In the case of PEPTIDE1{S.V.S.V.S.[am]}$$$$V2.0, the “crude HPLC purity” value is reported as roughly 60%. For PEPTIDE1{S.V.S.V.[am]}$$$$V2.0, the “final HPLC purity” value was greater than 95%. For PEPTIDE1{V.S.V.S.V.S.V.S.[am]}$$$$V2.0, the “crude HPLC purity” value was roughly 50%. For PEPTIDE1{V.S.V.S.V.S.V.[am]}$$$$V2.0, the “final HPLC purity” value was greater than 95%. With PEPTIDE1{V.S.V.S.V.S.[am]}$$$$V2.0 the “crude HPLC purity” value was roughly 60%. In the case of PEPTIDE1{V.S.V.S.V.[am]}$$$$V2.0, the “final HPLC purity” value is reported as greater than 95%. For PEPTIDE1{V.S.V.S.[am]}$$$$V2.0, the “crude HPLC purity” value was roughly 60%.

Strings that start with PEPTIDE1 are HELM notation: dots part the residues, brackets hold end groups and non-standard residues.
